Measurements from patent publication US10487093B2, “Heterocyclic compounds, in particular 2-oxo-4,4,5,5,6,6,7,7-octahydrobenzoxazole derivatives, and their use as antibacterial compounds” (priority 2016, dated 2019).
Some of these results come from one statement about several compounds together.

Test system: E. coli MG1655 fluoroquinolone-mutant strains
Type: cell-based, Escherichia coli
Conditions: MG1655 S83L and MG1655 D87G versus parent MG1655; no significant loss

| Compound | loss of activity (fold change) against the E. coli MG1655 fluoroquinolone-mutant strains [fold] |
| --- | --- |
| COc1ncc2ccc(=O)n(CCN[C@@H]3CC[C@@H]4[C@@H](C3)OC(=O)N4c3ncc4c(n3)NC(=O)CO4)c2n1 [Compound 33, (3aR,6R,7aR)-6-[(2-{2-methoxy-7-oxo-7H,8H-pyrido[2,3-d]pyrimidin-8-yl}ethyl)amino]-3-{7-oxo-6H,7H,8H-pyrimido[5,4-b][1,4]oxazin-2-yl}-octahydro-1,3-benzoxazol-2-one] | ≤ 2 |
| CN(C)CCOc1ccc2ccc(=O)n(CCN[C@@H]3CC[C@@H]4[C@@H](C3)OC(=O)N4c3ccc4c(n3)NC(=O)CO4)c2c1 [Compound 32, 1-(2-{[(3aR,6R,7aR)-2-oxo-3-{3-oxo-2H,3H,4H-pyrido[3,2-b][1,4]oxazin-6-yl}-octahydro-1,3-benzoxazol-6-yl]amino}ethyl)-7-[2-(dimethylamino)ethoxy]-1,2-dihydroquinolin-2-one] | ≤ 2 |
| N#Cc1ccc2ccc(=O)n(CCN[C@H]3CC[C@H]4[C@@H](C3)OC(=O)N4c3ccc4c(n3)NC(=O)CO4)c2n1 [Compound 15, 8-(2-{[(3aS,6S,7aR)-2-oxo-3-{3-oxo-2H,3H,4H-pyrido[3,2-b][1,4]oxazin-6-yl}-octahydro-1,3-benzoxazol-6-yl]amino}ethyl)-7-oxo-7,8-dihydro-1,8-naphthyridine-2-carbonitrile] | ≤ 2 |
| COc1cnc2ccc(=O)n(CCN[C@@H]3CC[C@@H]4[C@@H](C3)OC(=O)N4c3ccc4c(n3)NC(=O)CO4)c2c1 [Compound 69, 1-(2-{[(3aR,6R,7aR)-2-oxo-3-{3-oxo-2H,3H,4H-pyrido[3,2-b][1,4]oxazin-6-yl}-octahydro-1,3-benzoxazol-6-yl]amino}ethyl)-7-methoxy-1,2-dihydro-1,5-naphthyridin-2-one] | ≤ 2 |
| COc1ccc2ncc(=O)n(CCN[C@@H]3CC[C@@H]4[C@@H](C3)OC(=O)N4c3ccc4c(n3)NC(=O)CO4)c2c1 [Compound 21, 1-(2-{[(3aR,6R,7aR)-2-oxo-3-{3-oxo-2H,3H,4H-pyrido[3,2-b][1,4]oxazin-6-yl}-octahydro-1,3-benzoxazol-6-yl]amino}ethyl)-7-methoxy-1,2-dihydroquinoxalin-2-one] | ≤ 2 |
| COc1cnc2ccc(=O)n(CCN[C@H]3CC[C@H]4[C@H](C3)OC(=O)N4c3ccc4c(n3)NC(=O)CO4)c2n1 [Compound 63, (3aS,6S,7aS)-6-[(2-{3-methoxy-6-oxo-5H,6H-pyrido[2,3-b]pyrazin-5-yl}ethyl)amino]-3-{3-oxo-2H,3H,4H-pyrido[3,2-b][1,4]oxazin-6-yl}-octahydro-1,3-benzoxazol-2-one] | ≤ 2 |
| CN(CCn1c(=O)ccc2ccc(OCCN)cc21)[C@@H]1CC[C@@H]2[C@@H](C1)OC(=O)N2c1ccc2c(n1)NC(=O)CO2 [Compound 54] | ≤ 2 |
| N#Cc1cnc2ccc(=O)n(CCCN[C@H]3CC[C@H]4[C@H](C3)OC(=O)N4c3ccc4c(n3)NC(=O)CO4)c2c1 [Compound 82, 5-(3-{[(3aS,6S,7aS)-2-oxo-3-{3-oxo-2H,3H,4H-pyrido[3,2-b][1,4]oxazin-6-yl}-octahydro-1,3-benzoxazol-6-yl]amino}propyl)-6-oxo-5,6-dihydro-1,5-naphthyridine-3-carbonitrile] | ≤ 2 |
| COc1ccc2ccc(=O)n(CCN[C@H]3CC[C@H]4[C@H](C3)OC(=O)N4c3ccc4c(n3)NC(=O)CO4)c2n1 [Compound 29, 1-(2-{[(3aS,6S,7aS)-2-oxo-3-{3-oxo-2H,3H,4H-pyrido[3,2-b][1,4]oxazin-6-yl}-octahydro-1,3-benzoxazol-6-yl]amino}ethyl)-7-methoxy-1,2-dihydro-1,8-naphthyridin-2-one] | ≤ 2 |
